PMC4490372

Key:
[1] = test system: TFIIIC (six-subunit complex: τ138, τ131, τ95, τ91, τ60, τ55) (Saccharomyces cerevisiae SC2342); assay: EMSA; conditions: EMSA: 20 mM Tris pH 7.5, 150 mM NaCl, 1 mM MgCl2, 2 mM DTT, 25 °C, 30 min; 4.5% acrylamide gel in Tris-glycine; native protein; protein details: C-terminal TAP on τ60 (Tfc8), TEV-cleaved; label: 32P end label
[2] = target: T1, τ138 eWH domain (Saccharomyces cerevisiae) (UniProt P34111); assay: EMSA; conditions: very weak unspecific binding, EMSA: 20 mM Tris pH 7.5, 150 mM NaCl, 1 mM MgCl2, 2 mM DTT, 25 °C, 30 min, 4.5% acrylamide gel in Tris-glycine, recombinant protein, residues 546-641, protein details: 6xHis-GST removed by TEV, label: 32P end label
T1 sequence (looked up): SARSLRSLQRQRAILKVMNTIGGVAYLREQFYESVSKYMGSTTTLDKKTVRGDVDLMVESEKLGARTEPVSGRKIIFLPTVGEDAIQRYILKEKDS

Row | Sequence | binding result [1] | binding result [2] | binding result ([2]; single-stranded …)
1 | CGATATAGTGTAACGGCTATCACATCACGCTTTCACCGTGGAGACCGGGGTTCGACTCCCCGTATC (double strand) [66 bp tDNAGlu oligonucleotide (ds)] | binds | binds more weakly | 
2 | CGATATAGTGTAACGGCTATCACATCACGCTTTCACCGTGGAGACCGGGGTTCGACTCCCCGTATC [66 nt tDNAGlu oligonucleotide (ss)] |  |  | binds more weakly

For part of these data: A weaker result is weaker than the reference pair of the same experiment. For part of these data: Protein sequences can lack the tags named with them. Construct, isoform or probe ends are uncertain for at least one entry.
